No constants are given. Whether binding was seen depends on the method and setting. Some results given as binding are weak or reduced against the parent protein; the word gives no strength.
B1: single VH domain antibody 3.1 (VHH, not shown: small tags and cut ends)
VHH: EVQLVESGGGVVQPGRSLRLSCAASGFPLISYGMHWVRQAPGKGLEWVAFMTYDGSNRYYADSVKGRFTISRDNSKNTLYLQMNSLRDEDTALYYCARDRIVGGRVPDAFDIWGQGTMVTVSS
B2: single VH domain antibody 2.10 (VHH)
VHH: EVQLVESGGGVVQPGRSLRLSCAASGFTFSGYGMHWVRQAPGKGLEWVAYISYDGSNRYYADSVKGRFTISRDNSKKTLSLQMNSLRAEDTAVYYCAKDPAWGLRLGESSSYDFDIWGQGTMVTVSS
B3: single VH domain antibody 11.1 (VHH, not shown: small tags and cut ends)
VHH: EVQLVESGGGLVKPGGSLRLSCAASGFNLISYGMYWVRQAPGKGLEWVAVISYDGSNKNYADSVKGRFTISRDNSKNTLFLQMNSLRVEDTAVYYCAKGGNALYSSGWPDDGFDIRGQGTMVTVSS
B4: single VH domain antibody 15.1 (VHH, not shown: small tags and cut ends)
VHH: EVQLVESGGGVVRPGGSLRLSCAASGFTFDDYGMSWVRQAPGKGLEWVSGINWNGDRTGYADSVKGRFTISRDNAKNSLYLQMNSLRAEDTALYYCGRENVIVPAATYWGQGTLVTVSS
B5: single VH domain antibody 12.1 (VHH, not shown: small tags and cut ends)
VHH: QVQLVESGGGVVQPGRSLRLSCAASGFTFSNFGMHWARQAPGKGLEWVAVISYDGNSKYYADTVKGRFTISRDNSKNTLYLEMNSLRADDTAVYYCAKGLWPPMDVRGQGTTVTVSS
B6: single VH domain antibody 8.1 (VHH, not shown: small tags and cut ends)
VHH: QVQLQQWGAGLLKPSETLSLTCAVYGGSFSGYYWSWIRQPPGKGLEWIGEINHSGSTNYNPSLKSRVTISVDTSKNQFSLKLSSVTAADTAVYYCARGPIPATAIPDAFDIWGQGTMVTVSS
B7: single VH domain antibody 9.1 (VHH, not shown: small tags and cut ends)
VHH: QVQLQQWGAGLLKPSETLSLTCAVYGGSFSGHYWSWIRQPPGKGLEWIGDINHSGSTNYNPSLKSRVTISVDTSKNQFSLKLSSVTAADTAVYYCVRDYGDSRSLFDYWGQGTLVTVSS
B8: single VH domain antibody 10.1 (VHH, not shown: small tags and cut ends)
VHH: QVQLVESGGGLVQPGGSLRLSCAASGFTFSSYGMHWVRQAPGKGLEWVAFMSYDGSNKYYVDSVKGRFTISRDNSKNTLYLQMNSLRAEDTAVYYCAKGDYDFWSGYPDYDMDVWGQGTTVTVSS

Biological target: cynomolgus PSMA, full-length, expressed on CHO cells (cynomolgus)
Test: FMAT Mirrorball direct cell binding, purified His-tagged VH titrated on CHO cells expressing cynomolgus PSMA, anti-His + anti-mouse Alexa Fluor-488; panel cynoPSMA-CHO binding

binding, binds:
B1
B2

Biological target: cynomolgus PSMA, full-length, expressed on CHO cells (cynomolgus)
Test: FMAT periprep screen, Cyno PSMA CHO

binding, binds:
B3
B4
B5
B6
B7
B8

Reference: patent US20190023807A1
